{
  "source": "the supplement of paper PMC8728848",
  "test_in_all_cases": "glycan array binding signal (z-score within array); higher = stronger binding",
  "conditions_in_all_cases": "glycan notation: IUPAC condensed, linker removed",
  "key": {"[1]": {"molecular_target": "Neu5Ac(a2-6)GlcNAc(b1-4)GlcNAc(b1-4)GlcNAc", "in_short": "(§1)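 The binding signal is a Z-score computed within each array. Data were drawn from 3228 arrays in the Consortium for Functional Glycomics database, restricted to those with a known protein sequence. Scores were averaged over arrays of the same protein sequence at different concentrations or buffers, and over linkers, and negative values can be taken as non-binding.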"}, "Neu5Ac(a2-8)Neu5Ac": {"molecular_target": "Neu5Ac(a2-8)Neu5Ac", "in_short": "as §1"}, "[2]": {"molecular_target": "Neu5Ac(a2-8)Neu5Ac(a2-3)Gal(b1-3)GalNAc(b1-4)[Neu5Ac(a2-3)]Gal(b1-4)Glc", "in_short": "as §1"}, "[3]": {"molecular_target": "Neu5Ac(a2-8)Neu5Ac(a2-3)Gal(b1-3)GalNAc(b1-4)[Neu5Ac(a2-8)Neu5Ac(a2-3)]Gal(b1-4)Glc", "in_short": "as §1"}, "[4]": {"molecular_target": "Neu5Ac(a2-8)Neu5Ac(a2-3)Gal(b1-4)Glc", "in_short": "as §1"}, "[5]": {"molecular_target": "Neu5Ac(a2-8)Neu5Ac(a2-3)Gal(b1-4)GlcNAc", "in_short": "as §1"}, "[6]": {"molecular_target": "Neu5Ac(a2-8)Neu5Ac(a2-3)[Gal(b1-3)GalNAc(b1-4)]Gal(b1-4)Glc", "in_short": "as §1"}, "[7]": {"molecular_target": "Neu5Ac(a2-8)Neu5Ac(a2-3)[GalNAc(b1-4)]Gal(b1-4)Glc", "in_short": "as §1"}, "[8]": {"molecular_target": "Neu5Ac(a2-8)Neu5Ac(a2-8)Neu5Ac", "in_short": "as §1"}, "[9]": {"molecular_target": "Neu5Ac(a2-8)Neu5Ac(a2-8)Neu5Ac(a2-3)Gal(b1-4)Glc", "in_short": "as §1"}, "[10]": {"molecular_target": "Neu5Ac(a2-8)Neu5Ac(a2-8)Neu5Ac(a2-3)[Gal(b1-3)GalNAc(b1-4)]Gal(b1-4)Glc", "in_short": "as §1"}, "[11]": {"molecular_target": "Neu5Ac(a2-8)Neu5Ac(a2-8)Neu5Ac(a2-3)[GalNAc(b1-4)]Gal(b1-4)Glc", "in_short": "as §1"}, "[12]": {"molecular_target": "Neu5Ac(a2-8)Neu5Ac(a2-8)Neu5Ac(a2-8)Neu5Ac(a2-3)[GalNAc(b1-4)]Gal(b1-4)Glc", "in_short": "as §1"}, "[13]": {"molecular_target": "Neu5Ac(a2-8)Neu5Gc(a2-3)Gal(b1-4)GlcNAc", "in_short": "as §1"}, "[14]": {"molecular_target": "Neu5Ac(b2-6)Gal(b1-4)GlcNAc", "in_short": "as §1"}, "Neu5Ac(b2-6)GalNAc": {"molecular_target": "Neu5Ac(b2-6)GalNAc", "in_short": "as §1"}, "[15]": {"molecular_target": "Neu5Ac9Ac(a2-3)Gal(b1-3)GlcNAc", "in_short": "as §1"}, "[16]": {"molecular_target": "Neu5Ac9Ac(a2-3)Gal(b1-4)GlcNAc", "in_short": "as §1"}, "[17]": {"molecular_target": "Neu5Ac9Ac(a2-6)Gal(b1-4)GlcNAc", "in_short": "as §1"}, "[18]": {"molecular_target": "Neu5Gc(a2-3)Gal(b1-3)GlcNAc", "in_short": "as §1"}, "[19]": {"molecular_target": "Neu5Gc(a2-3)Gal(b1-3)[Fuc(a1-4)]GlcNAc", "in_short": "as §1"}, "Neu5Gc(a2-3)Gal(b1-4)Glc": {"molecular_target": "Neu5Gc(a2-3)Gal(b1-4)Glc", "in_short": "as §1"}, "[20]": {"molecular_target": "Neu5Gc(a2-3)Gal(b1-4)GlcNAc", "in_short": "as §1"}, "[21]": {"molecular_target": "Neu5Gc(a2-3)Gal(b1-4)GlcNAc(b1-3)Gal(b1-4)GlcNAc(b1-2)Man(a1-3)[Neu5Gc(a2-3)Gal(b1-4)GlcNAc(b1-3)Gal(b1-4)GlcNAc(b1-2)Man(a1-6)]Man(b1-4)GlcNAc(b1-4)GlcNAc", "in_short": "as §1"}, "[22]": {"molecular_target": "Neu5Gc(a2-3)Gal(b1-4)[Fuc(a1-3)]GlcNAc", "in_short": "as §1"}, "[23]": {"molecular_target": "Neu5Gc(a2-6)Gal(b1-4)GlcNAc", "in_short": "as §1"}, "Neu5Gc(a2-6)GalNAc": {"molecular_target": "Neu5Gc(a2-6)GalNAc", "in_short": "as §1"}, "[24]": {"molecular_target": "Neu5Gc(a2-8)Neu5Ac(a2-3)Gal(b1-4)GlcNAc", "in_short": "as §1"}, "[25]": {"molecular_target": "Neu5Gc(a2-8)Neu5Gc(a2-3)Gal(b1-4)GlcNAc", "in_short": "as §1"}, "[26]": {"molecular_target": "Neu5Gc(a2-8)Neu5Gc(a2-3)Gal(b1-4)GlcNAc(b1-3)Gal(b1-4)GlcNAc", "in_short": "as §1"}, "[27]": {"molecular_target": "Neu5Gc(a2-8)Neu5Gc(a2-6)Gal(b1-4)GlcNAc", "in_short": "as §1"}, "[28]": {"molecular_target": "Neu5Gc(b2-6)Gal(b1-4)GlcNAc", "in_short": "as §1"}},
  "note": "The other results are listed elsewhere or left out.",
  "data": [
    {"binder": "AT3G44510(29) (Arabidopsis thaliana), F4J341 (protein) MEEHLQGRIKLHDGRYLAYKERGVPKDDAKFTIVLVHGFGSSKDMNFNVSQELVNEIGIYFVLYDRAGYGESDPNPKRSLKSEAYDVQELADGLEIGSRFYLIGISMGSYTVWSCLKHIPQRLAGVAMVAPVVNFRWPSIPKSLMPKDYRREVAKWSVWIANYFPGLLQWLVTQNMFSTTSMLEKNPVYFNDQDIEVLKHIKGFPMLTKEKLRERGVFGTLRSDFLVAFGDWDFDPADLPDPSLSGPEKGSSSVHIWQGYEDKVMPFQLQRCLCRKLPWIRYHEVPKGGHLIVHYDGICDAILKSLLLGEDLPMYKPKAVITEPA", "values": [
      {"measurement": "glycan array binding signal (z-score)", "setting": "[1]", "value": -0.287},
      {"measurement": "glycan array binding signal (z-score)", "setting": "Neu5Ac(a2-8)Neu5Ac", "value": -0.587},
      {"measurement": "glycan array binding signal (z-score)", "setting": "[2]", "value": -0.267},
      {"measurement": "glycan array binding signal (z-score)", "setting": "[3]", "value": -0.159},
      {"measurement": "glycan array binding signal (z-score)", "setting": "[4]", "value": -0.403},
      {"measurement": "glycan array binding signal (z-score)", "setting": "[5]", "value": -0.423},
      {"measurement": "glycan array binding signal (z-score)", "setting": "[6]", "value": -0.477},
      {"measurement": "glycan array binding signal (z-score)", "setting": "[7]", "value": 0.865},
      {"measurement": "glycan array binding signal (z-score)", "setting": "[8]", "value": -0.439},
      {"measurement": "glycan array binding signal (z-score)", "setting": "[9]", "value": 0.131},
      {"measurement": "glycan array binding signal (z-score)", "setting": "[10]", "value": -0.371},
      {"measurement": "glycan array binding signal (z-score)", "setting": "[11]", "value": 0.222},
      {"measurement": "glycan array binding signal (z-score)", "setting": "[12]", "value": -0.387},
      {"measurement": "glycan array binding signal (z-score)", "setting": "[13]", "value": -0.685},
      {"measurement": "glycan array binding signal (z-score)", "setting": "[14]", "value": -0.415},
      {"measurement": "glycan array binding signal (z-score)", "setting": "Neu5Ac(b2-6)GalNAc", "value": -0.507},
      {"measurement": "glycan array binding signal (z-score)", "setting": "[15]", "value": 0.035},
      {"measurement": "glycan array binding signal (z-score)", "setting": "[16]", "value": -0.419},
      {"measurement": "glycan array binding signal (z-score)", "setting": "[17]", "value": -0.566},
      {"measurement": "glycan array binding signal (z-score)", "setting": "[18]", "value": -0.612},
      {"measurement": "glycan array binding signal (z-score)", "setting": "[19]", "value": -0.708},
      {"measurement": "glycan array binding signal (z-score)", "setting": "Neu5Gc(a2-3)Gal(b1-4)Glc", "value": -0.378},
      {"measurement": "glycan array binding signal (z-score)", "setting": "[20]", "value": -0.399},
      {"measurement": "glycan array binding signal (z-score)", "setting": "[21]", "value": -0.365},
      {"measurement": "glycan array binding signal (z-score)", "setting": "[22]", "value": -0.402},
      {"measurement": "glycan array binding signal (z-score)", "setting": "[23]", "value": 0},
      {"measurement": "glycan array binding signal (z-score)", "setting": "Neu5Gc(a2-6)GalNAc", "value": -0.783},
      {"measurement": "glycan array binding signal (z-score)", "setting": "[24]", "value": -0.274},
      {"measurement": "glycan array binding signal (z-score)", "setting": "[25]", "value": -0.451},
      {"measurement": "glycan array binding signal (z-score)", "setting": "[26]", "value": 0.206},
      {"measurement": "glycan array binding signal (z-score)", "setting": "[27]", "value": 1.09},
      {"measurement": "glycan array binding signal (z-score)", "setting": "[28]", "value": -0.149}
    ]}
  ]
}
